Assay results published in US7604804B2, “Enhancing anti-HIV efficiency through multivalent inhibitors targeting oligomeric gp120” (University of Maryland Biotechnology Institute, priority 2004, dated 2009).
pIC50: −log10 of the molar value. Some of these results come from one statement about several compounds together.

Tested on: HIV-1IIIB
Experiment: Anti-viral assay: PBMCs infected with HIV-1IIIB, virus production measured by RT activity
Format: cell-based
Conditions: PBMCs infected by HIV-1IIIB; value depending on the donors of PBMCs; read-out: IC50 (concentration for 50% inhibition of HIV infection)

`CC(C)C[C@@H]1NC(=O)CNC(=O)[C@H](CC(C)C)NC(=O)[C@H](CO)NC(=O)[C@H](CCCCN)NC(=O)[C@@H]2CSSC[C@@H](C(=O)NCC(=O)N3CCC[C@H]3C(N)=O)NC(=O)[C@H](C)NC(=O)[C@@H]3CSSC[C@H](NC(=O)[C@H](CCCNC(=N)N)NC(=O)[C@H](C)NC(=O)[C@H](CC(C)C)NC(=O)[C@H](CC(N)=O)NC(=O)[C@@H](N)CSSC[C@H](NC(=O)[C@H](CCCCN)NC(=O)CNC(=O)[C@H](CC(C)C)NC1=O)C(=O)N[C@@H](C)C(=O)NCC(=O)N[C@@H](CO)C(=O)N[C@@H](Cc1ccccc1)C(=O)N3)C(=O)N[C@@H](CCC(N)=O)C(=O)N[C@@H](CC(C)C)C(=O)N[C@@H](CCCNC(=N)N)C(=O)N2` [CD4M9] was tested, and the pIC50 was 5.30 to 6.00.
